According to the supplement of paper PMC10849652:
Some of the results follow.

Amino acid sequences for entries named in this document (tags omitted). A change or cut given only in a name is not applied to a line headed by its entry.
UniProt P62308, whole entry, looked up: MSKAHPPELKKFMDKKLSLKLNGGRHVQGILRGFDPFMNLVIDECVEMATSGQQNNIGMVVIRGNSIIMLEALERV
UniProt P62304, whole entry, looked up: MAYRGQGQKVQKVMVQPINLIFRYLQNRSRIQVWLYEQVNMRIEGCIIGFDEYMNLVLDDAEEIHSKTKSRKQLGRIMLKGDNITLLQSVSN
UniProt O95721: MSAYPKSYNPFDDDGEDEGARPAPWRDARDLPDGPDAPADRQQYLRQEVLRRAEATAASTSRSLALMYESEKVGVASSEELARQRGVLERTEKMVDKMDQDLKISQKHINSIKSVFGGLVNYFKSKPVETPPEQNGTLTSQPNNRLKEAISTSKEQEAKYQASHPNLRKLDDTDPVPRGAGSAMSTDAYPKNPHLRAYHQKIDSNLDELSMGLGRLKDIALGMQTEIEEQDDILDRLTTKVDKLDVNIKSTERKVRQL
UniProt P62314, whole entry, looked up: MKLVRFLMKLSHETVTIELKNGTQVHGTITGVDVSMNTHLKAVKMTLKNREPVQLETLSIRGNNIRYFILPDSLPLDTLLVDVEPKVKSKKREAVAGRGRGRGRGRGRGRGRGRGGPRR
UniProt O75940: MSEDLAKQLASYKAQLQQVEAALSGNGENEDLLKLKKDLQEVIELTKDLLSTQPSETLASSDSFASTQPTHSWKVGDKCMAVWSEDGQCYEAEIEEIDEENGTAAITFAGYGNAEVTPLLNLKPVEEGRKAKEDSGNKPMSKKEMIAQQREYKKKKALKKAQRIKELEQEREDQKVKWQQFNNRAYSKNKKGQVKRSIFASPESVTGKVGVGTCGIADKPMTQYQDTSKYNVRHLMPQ
UniProt Q9H4L7: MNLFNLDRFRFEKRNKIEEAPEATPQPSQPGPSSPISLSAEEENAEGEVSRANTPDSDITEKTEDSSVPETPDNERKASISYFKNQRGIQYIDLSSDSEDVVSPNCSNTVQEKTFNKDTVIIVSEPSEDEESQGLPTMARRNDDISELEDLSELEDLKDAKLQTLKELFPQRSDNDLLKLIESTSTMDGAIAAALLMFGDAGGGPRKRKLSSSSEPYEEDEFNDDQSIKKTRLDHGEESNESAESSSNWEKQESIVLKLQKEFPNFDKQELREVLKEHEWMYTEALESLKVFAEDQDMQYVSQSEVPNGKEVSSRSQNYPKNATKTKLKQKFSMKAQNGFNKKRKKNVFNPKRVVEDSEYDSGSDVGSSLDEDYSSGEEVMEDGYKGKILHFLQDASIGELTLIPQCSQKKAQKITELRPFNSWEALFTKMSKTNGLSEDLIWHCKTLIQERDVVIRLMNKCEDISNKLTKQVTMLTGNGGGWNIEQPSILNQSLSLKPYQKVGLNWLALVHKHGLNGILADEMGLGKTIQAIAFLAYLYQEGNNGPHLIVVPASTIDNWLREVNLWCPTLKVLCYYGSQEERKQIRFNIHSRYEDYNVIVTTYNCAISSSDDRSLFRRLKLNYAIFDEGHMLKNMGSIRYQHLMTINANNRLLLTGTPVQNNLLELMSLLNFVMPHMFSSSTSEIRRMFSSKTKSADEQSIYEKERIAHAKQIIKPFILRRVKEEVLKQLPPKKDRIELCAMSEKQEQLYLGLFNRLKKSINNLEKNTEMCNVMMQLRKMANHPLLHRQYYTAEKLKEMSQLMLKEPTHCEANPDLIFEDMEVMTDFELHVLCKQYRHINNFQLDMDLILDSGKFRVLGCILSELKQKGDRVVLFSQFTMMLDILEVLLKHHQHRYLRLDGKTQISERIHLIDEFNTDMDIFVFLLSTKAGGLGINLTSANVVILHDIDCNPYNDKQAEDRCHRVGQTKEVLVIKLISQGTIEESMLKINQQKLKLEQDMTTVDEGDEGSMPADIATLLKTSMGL
UniProt O75643, whole entry, looked up: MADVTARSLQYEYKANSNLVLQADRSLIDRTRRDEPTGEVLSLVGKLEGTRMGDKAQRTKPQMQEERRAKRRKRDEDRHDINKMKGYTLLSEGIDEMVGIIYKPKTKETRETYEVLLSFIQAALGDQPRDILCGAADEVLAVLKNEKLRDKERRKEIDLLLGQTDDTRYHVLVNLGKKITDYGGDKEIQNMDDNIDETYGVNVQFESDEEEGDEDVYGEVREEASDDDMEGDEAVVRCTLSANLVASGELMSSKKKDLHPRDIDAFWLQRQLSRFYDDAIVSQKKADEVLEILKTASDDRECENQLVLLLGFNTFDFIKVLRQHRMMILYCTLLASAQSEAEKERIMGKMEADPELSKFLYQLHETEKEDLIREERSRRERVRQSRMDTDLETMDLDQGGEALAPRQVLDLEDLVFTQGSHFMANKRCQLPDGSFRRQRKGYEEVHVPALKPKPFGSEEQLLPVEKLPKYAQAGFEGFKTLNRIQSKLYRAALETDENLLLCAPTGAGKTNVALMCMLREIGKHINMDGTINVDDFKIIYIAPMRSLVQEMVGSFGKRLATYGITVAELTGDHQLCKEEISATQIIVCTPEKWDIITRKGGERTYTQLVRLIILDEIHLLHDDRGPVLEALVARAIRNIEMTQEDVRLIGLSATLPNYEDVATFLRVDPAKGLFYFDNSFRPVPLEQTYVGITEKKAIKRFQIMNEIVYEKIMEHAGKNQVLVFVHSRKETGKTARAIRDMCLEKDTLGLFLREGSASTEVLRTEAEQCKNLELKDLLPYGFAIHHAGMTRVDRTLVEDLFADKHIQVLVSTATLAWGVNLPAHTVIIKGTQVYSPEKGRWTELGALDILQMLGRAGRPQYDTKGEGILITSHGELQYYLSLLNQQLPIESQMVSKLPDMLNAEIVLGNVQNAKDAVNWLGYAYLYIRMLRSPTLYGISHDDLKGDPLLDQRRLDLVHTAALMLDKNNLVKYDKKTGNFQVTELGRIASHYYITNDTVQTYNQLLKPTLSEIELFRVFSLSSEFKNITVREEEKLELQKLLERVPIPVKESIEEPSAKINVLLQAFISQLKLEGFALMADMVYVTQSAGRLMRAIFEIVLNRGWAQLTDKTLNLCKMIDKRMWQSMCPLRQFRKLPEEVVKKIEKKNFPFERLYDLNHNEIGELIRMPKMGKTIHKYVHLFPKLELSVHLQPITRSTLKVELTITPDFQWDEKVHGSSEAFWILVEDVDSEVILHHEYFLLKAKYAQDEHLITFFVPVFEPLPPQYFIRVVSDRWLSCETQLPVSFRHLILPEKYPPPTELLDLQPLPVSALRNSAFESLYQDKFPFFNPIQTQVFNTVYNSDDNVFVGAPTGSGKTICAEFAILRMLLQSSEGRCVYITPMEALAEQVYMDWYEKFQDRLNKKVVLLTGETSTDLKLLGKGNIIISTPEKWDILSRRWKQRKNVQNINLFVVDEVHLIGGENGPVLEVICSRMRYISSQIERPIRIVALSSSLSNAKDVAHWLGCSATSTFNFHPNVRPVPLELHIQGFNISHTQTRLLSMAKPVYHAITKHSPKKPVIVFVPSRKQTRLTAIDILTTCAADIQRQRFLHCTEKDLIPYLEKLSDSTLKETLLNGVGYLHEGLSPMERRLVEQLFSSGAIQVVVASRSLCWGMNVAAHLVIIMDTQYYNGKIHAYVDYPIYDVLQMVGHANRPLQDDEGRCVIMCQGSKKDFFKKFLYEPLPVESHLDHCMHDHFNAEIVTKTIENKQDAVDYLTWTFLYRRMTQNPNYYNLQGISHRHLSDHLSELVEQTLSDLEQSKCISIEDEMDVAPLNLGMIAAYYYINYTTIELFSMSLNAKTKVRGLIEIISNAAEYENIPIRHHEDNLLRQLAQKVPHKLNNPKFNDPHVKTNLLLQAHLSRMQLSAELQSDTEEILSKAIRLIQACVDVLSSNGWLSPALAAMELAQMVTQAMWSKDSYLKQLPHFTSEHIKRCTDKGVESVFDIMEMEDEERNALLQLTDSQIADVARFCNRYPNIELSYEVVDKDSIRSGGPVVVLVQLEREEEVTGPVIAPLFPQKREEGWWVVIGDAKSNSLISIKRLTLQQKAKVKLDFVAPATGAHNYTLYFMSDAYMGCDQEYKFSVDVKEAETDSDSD
UniProt Q6IEG0: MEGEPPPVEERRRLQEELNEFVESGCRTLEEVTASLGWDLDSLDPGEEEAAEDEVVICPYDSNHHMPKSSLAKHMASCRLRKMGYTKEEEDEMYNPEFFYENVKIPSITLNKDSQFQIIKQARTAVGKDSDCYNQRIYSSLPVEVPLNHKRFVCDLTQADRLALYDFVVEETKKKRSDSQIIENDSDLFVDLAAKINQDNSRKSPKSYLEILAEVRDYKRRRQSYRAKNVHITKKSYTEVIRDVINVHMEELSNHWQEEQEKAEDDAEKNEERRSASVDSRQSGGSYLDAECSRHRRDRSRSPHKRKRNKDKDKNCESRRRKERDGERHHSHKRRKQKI
UniProt O95295: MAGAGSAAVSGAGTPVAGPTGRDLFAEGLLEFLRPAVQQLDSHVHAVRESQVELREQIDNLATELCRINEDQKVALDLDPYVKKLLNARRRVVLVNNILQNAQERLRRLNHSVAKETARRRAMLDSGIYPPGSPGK
UniProt Q9NX45: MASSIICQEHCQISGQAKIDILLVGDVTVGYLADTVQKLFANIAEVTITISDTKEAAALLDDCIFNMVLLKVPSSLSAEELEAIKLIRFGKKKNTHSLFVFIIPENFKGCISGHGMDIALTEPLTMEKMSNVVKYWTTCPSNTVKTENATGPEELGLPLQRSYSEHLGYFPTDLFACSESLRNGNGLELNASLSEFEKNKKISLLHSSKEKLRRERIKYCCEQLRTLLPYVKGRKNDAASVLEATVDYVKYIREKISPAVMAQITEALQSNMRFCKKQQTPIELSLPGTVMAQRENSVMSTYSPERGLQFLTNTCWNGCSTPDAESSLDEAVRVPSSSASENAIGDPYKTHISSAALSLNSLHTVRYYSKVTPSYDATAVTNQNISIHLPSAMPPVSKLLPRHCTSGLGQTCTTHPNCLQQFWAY
UniProt Q99523, whole entry, looked up: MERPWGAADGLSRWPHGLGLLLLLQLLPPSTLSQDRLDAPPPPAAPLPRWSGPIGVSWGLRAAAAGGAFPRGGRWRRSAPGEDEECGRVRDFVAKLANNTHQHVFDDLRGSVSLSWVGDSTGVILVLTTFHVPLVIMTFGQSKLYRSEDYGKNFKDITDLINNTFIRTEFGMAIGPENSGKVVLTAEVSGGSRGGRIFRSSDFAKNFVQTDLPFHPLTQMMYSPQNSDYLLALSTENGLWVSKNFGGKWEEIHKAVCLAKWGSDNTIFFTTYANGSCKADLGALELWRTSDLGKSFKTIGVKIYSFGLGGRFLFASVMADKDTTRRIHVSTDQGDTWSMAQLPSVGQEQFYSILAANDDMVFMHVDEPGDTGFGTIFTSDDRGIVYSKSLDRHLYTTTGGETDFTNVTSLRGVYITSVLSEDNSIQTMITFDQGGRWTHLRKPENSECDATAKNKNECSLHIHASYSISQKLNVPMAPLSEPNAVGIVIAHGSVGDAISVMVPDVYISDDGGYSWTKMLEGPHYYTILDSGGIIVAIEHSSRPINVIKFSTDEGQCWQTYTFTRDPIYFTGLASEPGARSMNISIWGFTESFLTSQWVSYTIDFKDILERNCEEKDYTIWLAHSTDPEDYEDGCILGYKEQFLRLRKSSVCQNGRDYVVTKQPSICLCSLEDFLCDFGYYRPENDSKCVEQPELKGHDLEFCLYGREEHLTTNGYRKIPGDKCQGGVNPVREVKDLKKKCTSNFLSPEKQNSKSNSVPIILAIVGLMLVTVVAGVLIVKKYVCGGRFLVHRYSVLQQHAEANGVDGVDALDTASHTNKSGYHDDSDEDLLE
UniProt P62316, whole entry, looked up: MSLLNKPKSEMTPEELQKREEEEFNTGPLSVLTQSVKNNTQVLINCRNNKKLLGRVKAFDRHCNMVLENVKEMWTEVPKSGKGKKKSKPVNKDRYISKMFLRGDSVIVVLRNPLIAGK
UniProt Q9NRH2: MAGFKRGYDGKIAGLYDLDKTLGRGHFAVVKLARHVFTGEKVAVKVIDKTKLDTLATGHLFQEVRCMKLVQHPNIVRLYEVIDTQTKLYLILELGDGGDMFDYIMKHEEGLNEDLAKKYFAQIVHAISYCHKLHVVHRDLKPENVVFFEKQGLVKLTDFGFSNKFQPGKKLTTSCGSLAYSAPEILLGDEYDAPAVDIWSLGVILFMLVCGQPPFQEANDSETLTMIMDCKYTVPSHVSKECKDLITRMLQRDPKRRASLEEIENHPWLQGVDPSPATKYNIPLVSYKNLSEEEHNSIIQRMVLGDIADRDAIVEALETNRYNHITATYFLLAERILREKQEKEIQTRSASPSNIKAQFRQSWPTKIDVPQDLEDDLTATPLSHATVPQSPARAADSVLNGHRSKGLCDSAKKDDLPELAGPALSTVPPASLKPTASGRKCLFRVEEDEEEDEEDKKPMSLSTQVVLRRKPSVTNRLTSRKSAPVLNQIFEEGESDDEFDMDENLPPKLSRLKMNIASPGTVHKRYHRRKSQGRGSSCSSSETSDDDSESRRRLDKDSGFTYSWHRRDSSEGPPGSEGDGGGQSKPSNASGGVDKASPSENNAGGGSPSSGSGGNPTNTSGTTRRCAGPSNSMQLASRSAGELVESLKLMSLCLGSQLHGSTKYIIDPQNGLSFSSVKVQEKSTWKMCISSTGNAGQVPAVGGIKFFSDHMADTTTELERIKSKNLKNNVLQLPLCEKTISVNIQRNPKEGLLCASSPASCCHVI

Legend:
Experiment in all cases: log2 fold change, soluble protein after heating vs DMSO (PISA); higher = thermal stabilisation; K562 lysate, 10 uM; active = over 0.2 and 3.5 SD of the protein, either way, in both replicates (recomputed)
ibrutinib = compound: C=CC(=O)N1CCC[C@@H](n2nc(-c3ccc(Oc4ccccc4)cc3)c3c(N)ncnc32)C1 [ibrutinib]
Outline: (§1)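 Thermal stability, expressed as log-two fold change relative to solvent controls, is given from duplicates. Crude K562 extract in PBS pH 7.4 with 1 mM MgCl2, at 1 mg/mL protein, was treated with 10 μM compound for 30 min and heated in aliquots for 3 min across 48°C-58°C. After pooling, adjustment to 0.5% NP-40 at 4°C and centrifugation at 21,000xg for 90 min, supernatant protein was measured by TMTpro 16plex LC-MS/MS with channel sums equalised.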

[1] = compound: CC(=O)c1cnc2ccc(-c3cc(Cl)c(O)c(Cl)c3)nc2c1N[C@H]1CC[C@H](CN(C)C)CC1
Outline: as §1

ralimetinib = compound: CC(C)(C)Cn1c(N)nc2ccc(-c3[nH]c(C(C)(C)C)nc3-c3ccc(F)cc3)nc21 [ralimetinib]
Outline: as §1

[2] = compound: CC(C)(O)CC(=O)NCCn1ccc2ncnc(Nc3ccc(Oc4cccc(C(F)(F)F)c4)c(Cl)c3)c21
Outline: as §1

[3] = compound: CC(C)C1=C2N=C(C=C(N2N=C1)NCC3=CC=CC=C3)NCCCCCCN
Outline: as §1

[4] = compound: CC1=C(C(CC(=O)N1)C2=CC=C(C=C2)C(F)(F)F)C(=O)NC3=C(C=C4C(=C3)C=NN4)F
Outline: as §1

[5] = compound: CC1=C(C2=C(C=C1)C(=O)C3=CC=CC=C3N2CCCN)C
Outline: as §1

[6] = compound: CC1=C(C=C(C=C1)NC(=O)C2=CC(=CC=C2)C(C)(C)C#N)NC3=CC4=C(C=C3)N=CN(C4=O)C
Outline: as §1

[7] = compound: CC1=C(C=C(C=C1)NC(=O)C2=CC(=CC=C2)N(C)C)NC(=O)C3=CC=C(C=C3)O
Outline: as §1

[8] = compound: CC1=CC=C(C=C1)SC2=C3C=C(SC3=CN=C2)C(=O)N
Outline: as §1

Measured: log2 fold change

SNX8 (UniProt Q9Y5X2)
inactive: ibrutinib -0.022 | [1] -0.004 | ralimetinib 0.008 | [2] -0.055 | [3] -0.028 | [4] 0.029 | [5] -0.041 | [6] -0.009 | [7] -0.003 | [8] -0.011

SND1 (UniProt Q7KZF4)
inactive: ibrutinib 0.012 | [1] 0.004 | ralimetinib 0.03 | [2] 0.044 | [3] 0.027 | [4] 0.024 | [5] 0.015 | [6] 0.003 | [7] 0.038 | [8] 0.024

SNRPG (UniProt P62308)
inactive: ibrutinib -0.003 | [1] -0.033 | ralimetinib -0.005 | [2] -0.053 | [3] 0.003 | [4] 0.023 | [5] -0.015 | [6] -0.022 | [7] -0.009 | [8] -0.019

SNRPE (UniProt P62304)
inactive: ibrutinib 0.002 | [1] -0.009 | ralimetinib -0.041 | [2] -0.072 | [3] -0.019 | [4] 0.003 | [5] -0.034 | [6] 0.041 | [7] -0.023 | [8] 0

SMARCB1 (UniProt Q12824)
inactive: ibrutinib 0.036 | [1] 0.024 | ralimetinib 0.011 | [2] 0.014 | [3] 0.006 | [4] 0.028 | [5] -0.03 | [6] 0.013 | [7] -0.004 | [8] 0.054

SNX14 (UniProt Q9Y5W7)
inactive: ibrutinib 0.041 | [1] -0.065 | ralimetinib -0.422 | [2] -0.419 | [3] 0.067 | [4] 0.098 | [5] -0.058 | [6] 0.375 | [7] 0.018 | [8] 0

SMG8 isoform 2 (UniProt Q8ND04)
inactive: ibrutinib 0.01 | [1] -0.018 | ralimetinib 0.038 | [2] -0.046 | [3] 0.02 | [4] -0.024 | [5] 0.013 | [6] -0.044 | [7] -0.053 | [8] 0.046

SNX1 (UniProt Q13596)
inactive: ibrutinib 0.001 | [1] -0.009 | ralimetinib -0.018 | [2] 0.005 | [3] -0.006 | [4] -0.003 | [5] 0.001 | [6] -0.035 | [7] 0.007 | [8] -0.001

SNRNP70 (UniProt P08621)
inactive: ibrutinib -0.034 | [1] -0.031 | ralimetinib -0.015 | [2] -0.023 | [3] 0.034 | [4] -0.032 | [5] -0.037 | [6] -0.005 | [7] -0.006 | [8] 0

SNAP29 (UniProt O95721)
inactive: ibrutinib 0.044 | [1] 0.013 | ralimetinib 0.003 | [2] -0.018 | [3] 0.029 | [4] -0.011 | [5] 0.003 | [6] 0.052 | [7] -0.019 | [8] -0.027

SMARCC2 (UniProt Q8TAQ2)
inactive: ibrutinib 0.003 | [1] -0.006 | ralimetinib -0.011 | [2] 0.011 | [3] 0.008 | [4] -0.012 | [5] -0.022 | [6] -0.007 | [7] 0.014 | [8] 0.004

SMC1B isoform 3 (UniProt Q8NDV3)
inactive: ibrutinib 0.013 | [1] 0.017 | ralimetinib 0.07 | [2] -0.029 | [3] 0.001 | [4] -0.012 | [5] -0.001 | [6] 0.021 | [7] 0.026 | [8] -0.005

SMC2 (UniProt O95347)
inactive: ibrutinib 0.014 | [1] -0.011 | ralimetinib -0.016 | [2] -0.008 | [3] 0.014 | [4] -0.012 | [5] 0 | [6] 0 | [7] 0.013 | [8] 0.001

SNRPC (UniProt P09234)
inactive: ibrutinib 0.013 | [1] -0.007 | ralimetinib -0.053 | [2] 0.006 | [3] 0.041 | [4] -0.041 | [5] 0.004 | [6] -0.017 | [7] 0.005 | [8] -0.008

SNRPD1 (UniProt P62314)
inactive: ibrutinib -0.003 | [1] -0.017 | ralimetinib 0.021 | [2] -0.071 | [3] 0.017 | [4] 0.028 | [5] -0.008 | [6] 0.009 | [7] -0.066 | [8] 0.005

SNX27 (UniProt Q96L92)
inactive: ibrutinib 0.014 | [1] -0.037 | ralimetinib 0.026 | [2] -0.013 | [3] -0.012 | [4] -0.007 | [5] 0.047 | [6] 0.032 | [7] 0.016 | [8] 0.008

SMNDC1 (UniProt O75940)
inactive: ibrutinib -0.011 | [1] -0.012 | ralimetinib 0.026 | [2] -0.041 | [3] 0.035 | [4] 0.01 | [5] 0.023 | [6] 0.027 | [7] -0.011 | [8] -0.01

SMARCAD1 isoform 2 (UniProt Q9H4L7)
inactive: ibrutinib 0.006 | [1] -0.021 | ralimetinib 0.022 | [2] -0.016 | [3] 0.007 | [4] 0.008 | [5] 0.012 | [6] 0.021 | [7] 0.014 | [8] -0.022

SMARCD1 (UniProt Q96GM5)
inactive: ibrutinib 0.051 | [1] 0.023 | ralimetinib 0.014 | [2] 0.02 | [3] 0.018 | [4] 0.022 | [5] -0.008 | [6] -0.013 | [7] 0.01 | [8] 0.008

SMCR8 (UniProt Q8TEV9)
inactive: ibrutinib 0.067 | [1] 0.044 | ralimetinib -0.027 | [2] 0.017 | [3] -0.124 | [4] 0 | [5] 0.022 | [6] 0 | [7] 0.006 | [8] 0

SNRNP200 (UniProt O75643)
inactive: ibrutinib -0.002 | [1] -0.005 | ralimetinib 0.022 | [2] -0.015 | [3] 0.009 | [4] -0.01 | [5] 0.001 | [6] -0.018 | [7] 0.004 | [8] 0.013

SNAP23 (UniProt O00161)
inactive: ibrutinib 0.021 | [1] -0.003 | ralimetinib -0.01 | [2] 0.01 | [3] -0.04 | [4] -0.015 | [5] 0.045 | [6] 0.015 | [7] -0.013 | [8] 0.011

SNRNP48 (UniProt Q6IEG0)
inactive: ibrutinib 0.004 | [1] 0.095 | ralimetinib 0.083 | [2] -0.031 | [3] 0.034 | [4] -0.012 | [5] -0.132 | [6] -0.045 | [7] 0.01 | [8] -0.025

SNAPIN (UniProt O95295)
inactive: ibrutinib 0.093 | [1] -0.02 | ralimetinib 0.017 | [2] -0.053 | [3] 0.03 | [4] -0.007 | [5] -0.03 | [6] 0.069 | [7] 0.032 | [8] 0.004

SMC4 (UniProt C9JJ64)
inactive: ibrutinib -0.146

SOHLH2 isoform 3 (UniProt Q9NX45)
inactive: ibrutinib 0.06 | [1] 0.022 | ralimetinib 0.028 | [2] -0.012 | [3] 0.041 | [4] 0.013 | [5] 0.024 | [6] -0.049 | [7] 0.039 | [8] -0.033

SNX5 (UniProt Q9Y5X3)
inactive: ibrutinib -0.021 | [1] 0.013 | ralimetinib -0.012 | [2] 0.174 | [3] 0 | [4] -0.001 | [5] 0.032 | [6] -0.032 | [7] 0.018 | [8] 0.012

SORT1 (UniProt Q99523)
inactive: ibrutinib -0.008 | [1] -0.001 | ralimetinib -0.013 | [2] -0.014 | [3] -0.007 | [4] 0.006 | [5] -0.011 | [6] -0.001 | [7] 0.017 | [8] 0.006

SNRPD2 (UniProt P62316)
inactive: ibrutinib -0.028 | [1] -0.033 | ralimetinib -0.018 | [2] -0.041 | [3] 0.007 | [4] -0.011 | [5] 0.016 | [6] 0.01 | [7] 0.015 | [8] -0.005

SNRK (UniProt Q9NRH2)
inactive: ibrutinib 0.057 | [1] 0.05 | ralimetinib 0.018 | [2] 0.057 | [3] 0.004 | [4] 0.105 | [5] -0.141 | [6] 0.024 | [7] 0.083 | [8] -0.007

Fetched one by one from the entries so far, 2 records:
SMC1B isoform 3 (UniProt Q8NDV3)
inactive: ibrutinib 0.013 | [1] 0.017 | ralimetinib 0.07 | [2] -0.029 | [3] 0.001 | [4] -0.012 | [5] -0.001 | [6] 0.021 | [7] 0.026 | [8] -0.005

SNAP29 (UniProt O95721)
inactive: ibrutinib 0.044 | [1] 0.013 | ralimetinib 0.003 | [2] -0.018 | [3] 0.029 | [4] -0.011 | [5] 0.003 | [6] 0.052 | [7] -0.019 | [8] -0.027
